# Measured values reported in the supplement of paper PMC8728848.
# This is one part of the list.
# B1: LlpA1 (Pseudomonas fluorescens), Q4KHC3 (protein)
# chain: MGSSHHHHHHSSGLVPRGSHMAWIRYDFTDNGSSVLPARYYMAPNQYLQSPNKRFKLLFQADGNLALYDGAQLAWVADQNTPFTNVSKGNKKDPMMVFMNYGFVLDDPLRGRIWSTTPSDPTMGSREDASLRAFTQVQDDGNIVTVDTIPHWYAPNGRVFTPAVGAAMIIGGTTELVPGQFYSAGEHSLVFQGDGNLVVYGPNSSVIWATYTQNKGGVRCVMQEDGNLVIYAANNGVVWQSGTGGHPGATIRLQANGSFTIVTERPVWARFGYTPTIKPPRVFYPDHKWKTGSYTWNNVF
# Assays:
# Assay in all cases: glycan array binding signal (z-score within array); higher = stronger binding
# Settings in all cases: glycan notation: IUPAC condensed, linker removed
# Neu5Ac(a2-3)Gal(b1-4)Glc = target: Neu5Ac(a2-3)Gal(b1-4)Glc
# In short: (§1)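 From the Consortium for Functional Glycomics database, 3228 arrays were curated, keeping only those whose protein sequence was available. Binding is given as a within-array Z-score averaged across arrays sharing a protein sequence and across linkers. Negative Z-scores can be read as non-binding.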
# [1] = target: Neu5Ac(a2-3)Gal(b1-4)GlcNAc
# In short: as §1
# [2] = target: Neu5Ac(a2-3)Gal(b1-4)GlcNAc(b1-2)Man
# In short: as §1
# [3] = target: Neu5Ac(a2-3)Gal(b1-4)GlcNAc(b1-2)Man(a1-3)[GlcNAc(b1-2)Man(b1-4)GlcNAc(b1-2)Man(a1-6)]Man(b1-4)GlcNAc(b1-4)GlcNAc
# In short: as §1
# [4] = target: Neu5Ac(a2-3)Gal(b1-4)GlcNAc(b1-2)Man(a1-3)[GlcNAc(b1-4)][Neu5Ac(a2-3)Gal(b1-4)GlcNAc(b1-2)Man(a1-6)]Man(b1-4)GlcNAc(b1-4)GlcNAc
# In short: as §1
# [5] = target: Neu5Ac(a2-3)Gal(b1-4)GlcNAc(b1-2)Man(a1-3)[Neu5Ac(a2-3)Gal(b1-4)GlcNAc(b1-2)Man(a1-6)]Man(b1-4)GlcNAc(b1-4)GlcNAc
# In short: as §1
# [6] = target: Neu5Ac(a2-3)Gal(b1-4)GlcNAc(b1-2)Man(a1-3)[Neu5Ac(a2-3)Gal(b1-4)GlcNAc(b1-2)Man(a1-6)]Man(b1-4)GlcNAc(b1-4)[Fuc(a1-6)]GlcNAc
# In short: as §1
# [7] = target: Neu5Ac(a2-3)Gal(b1-4)GlcNAc(b1-2)Man(a1-3)[Neu5Ac(a2-6)Gal(b1-4)GlcNAc(b1-2)Man(a1-6)]Man(b1-4)GlcNAc(b1-4)GlcNAc
# In short: as §1
# [8] = target: Neu5Ac(a2-3)Gal(b1-4)GlcNAc(b1-2)[Neu5Ac(a2-3)Gal(b1-4)GlcNAc(b1-4)]Man(a1-3)[GlcNAc(b1-4)][Neu5Ac(a2-3)Gal(b1-4)GlcNAc(b1-2)[Neu5Ac(a2-3)Gal(b1-4)GlcNAc(b1-6)]Man(a1-6)]Man(b1-4)GlcNAc(b1-4)GlcNAc
# In short: as §1
# [9] = target: Neu5Ac(a2-3)Gal(b1-4)GlcNAc(b1-2)[Neu5Ac(a2-3)Gal(b1-4)GlcNAc(b1-4)]Man(a1-3)[GlcNAc(b1-4)][Neu5Ac(a2-3)Gal(b1-4)GlcNAc(b1-4)Man(a1-6)]Man(b1-4)GlcNAc(b1-4)GlcNAc
# In short: as §1
# [10] = target: Neu5Ac(a2-3)Gal(b1-4)GlcNAc(b1-2)[Neu5Ac(a2-3)Gal(b1-4)GlcNAc(b1-6)]Man(a1-6)[Neu5Ac(a2-3)Gal(b1-4)GlcNAc(b1-2)Man(a1-3)]Man(b1-4)GlcNAc(b1-4)GlcNAc
# In short: as §1
# [11] = target: Neu5Ac(a2-3)Gal(b1-4)GlcNAc(b1-2)[Neu5Ac(a2-3)Gal(b1-4)GlcNAc(b1-6)]Man(a1-6)[Neu5Ac(a2-3)Gal(b1-4)GlcNAc(b1-2)Man(a1-3)][GlcNAc(b1-4)]Man(b1-4)GlcNAc(b1-4)GlcNAc
# In short: as §1
# [12] = target: Neu5Ac(a2-3)Gal(b1-4)GlcNAc(b1-3)Gal
# In short: as §1
# [13] = target: Neu5Ac(a2-3)Gal(b1-4)GlcNAc(b1-3)Gal(b1-3)GlcNAc
# In short: as §1
# [14] = target: Neu5Ac(a2-3)Gal(b1-4)GlcNAc(b1-3)Gal(b1-4)GlcNAc
# In short: as §1
# [15] = target: Neu5Ac(a2-3)Gal(b1-4)GlcNAc(b1-3)Gal(b1-4)GlcNAc(b1-2)Man(a1-3)[Neu5Ac(a2-3)Gal(b1-4)GlcNAc(b1-3)Gal(b1-4)GlcNAc(b1-2)Man(a1-6)]Man(b1-4)GlcNAc(b1-4)GlcNAc
# In short: as §1
# [16] = target: Neu5Ac(a2-3)Gal(b1-4)GlcNAc(b1-3)Gal(b1-4)GlcNAc(b1-3)Gal(b1-4)GlcNAc
# In short: as §1
# [17] = target: Neu5Ac(a2-3)Gal(b1-4)GlcNAc(b1-3)Gal(b1-4)GlcNAc(b1-3)Gal(b1-4)GlcNAc(b1-2)Man(a1-3)[Neu5Ac(a2-3)Gal(b1-4)GlcNAc(b1-3)Gal(b1-4)GlcNAc(b1-3)Gal(b1-4)GlcNAc(b1-2)Man(a1-6)]GalNAc
# In short: as §1
# [18] = target: Neu5Ac(a2-3)Gal(b1-4)GlcNAc(b1-3)Gal(b1-4)GlcNAc(b1-3)GalNAc
# In short: as §1
# [19] = target: Neu5Ac(a2-3)Gal(b1-4)GlcNAc(b1-3)Gal(b1-4)GlcNAc(b1-3)[Neu5Ac(a2-3)Gal(b1-4)GlcNAc(b1-3)Gal(b1-4)GlcNAc(b1-6)]GalNAc
# In short: as §1
# [20] = target: Neu5Ac(a2-3)Gal(b1-4)GlcNAc(b1-3)Gal(b1-4)GlcNAc(b1-6)[Gal(b1-3)]GalNAc
# In short: as §1
# [21] = target: Neu5Ac(a2-3)Gal(b1-4)GlcNAc(b1-3)Gal(b1-4)[Fuc(a1-3)]GlcNAc
# In short: as §1
# [22] = target: Neu5Ac(a2-3)Gal(b1-4)GlcNAc(b1-3)GalNAc
# In short: as §1
# [23] = target: Neu5Ac(a2-3)Gal(b1-4)GlcNAc(b1-3)[Neu5Ac(a2-3)Gal(b1-4)GlcNAc(b1-6)]GalNAc
# In short: as §1
# [24] = target: Neu5Ac(a2-3)Gal(b1-4)GlcNAc(b1-6)GalNAc
# In short: as §1
# [25] = target: Neu5Ac(a2-3)Gal(b1-4)GlcNAc(b1-6)[Gal(b1-3)]GalNAc
# In short: as §1
# [26] = target: Neu5Ac(a2-3)Gal(b1-4)GlcNAc(b1-6)[Neu5Ac(a2-3)Gal(b1-3)]GalNAc
# In short: as §1
# [27] = target: Neu5Ac(a2-3)Gal(b1-4)GlcNAc6S
# In short: as §1
# [28] = target: Neu5Ac(a2-3)Gal(b1-4)[Fuc(a1-3)]GlcNAc
# In short: as §1
binder,measurement,setting,value
B1,glycan array binding signal (z-score),Neu5Ac(a2-3)Gal(b1-4)Glc,-0.026
same,glycan array binding signal (z-score),[1],-0.313
same,glycan array binding signal (z-score),[2],0.311
same,glycan array binding signal (z-score),[3],-1.78
same,glycan array binding signal (z-score),[4],-0.737
same,glycan array binding signal (z-score),[5],0.192
same,glycan array binding signal (z-score),[6],-0.571
same,glycan array binding signal (z-score),[7],0.144
same,glycan array binding signal (z-score),[8],-0.283
same,glycan array binding signal (z-score),[9],-0.737
same,glycan array binding signal (z-score),[10],0.102
same,glycan array binding signal (z-score),[11],0.052
same,glycan array binding signal (z-score),[12],-0.275
same,glycan array binding signal (z-score),[13],-0.396
same,glycan array binding signal (z-score),[14],0.295
same,glycan array binding signal (z-score),[15],0.673
same,glycan array binding signal (z-score),[16],-0.591
same,glycan array binding signal (z-score),[17],2.75
same,glycan array binding signal (z-score),[18],-0.569
same,glycan array binding signal (z-score),[19],0.564
same,glycan array binding signal (z-score),[20],0.659
same,glycan array binding signal (z-score),[21],-0.207
same,glycan array binding signal (z-score),[22],-0.31
same,glycan array binding signal (z-score),[23],-0.316
same,glycan array binding signal (z-score),[24],0.357
same,glycan array binding signal (z-score),[25],0.173
same,glycan array binding signal (z-score),[26],-0.232
same,glycan array binding signal (z-score),[27],-0.206
same,glycan array binding signal (z-score),[28],-0.498

# Some of the entries so far, bar-delimited.
binder | measurement | setting | value
B1 | glycan array binding signal (z-score) | [25] | 0.173
same | glycan array binding signal (z-score) | [26] | -0.232
